According to PMC7819943, “Rice protein-binding microarrays: a tool to detect cis-acting elements near promoter regions in rice”:
The other results are listed elsewhere or left out.

Chains of the proteins cited; added tags and fusions are not shown.
UniProt Q0JBA9, entry or part of it: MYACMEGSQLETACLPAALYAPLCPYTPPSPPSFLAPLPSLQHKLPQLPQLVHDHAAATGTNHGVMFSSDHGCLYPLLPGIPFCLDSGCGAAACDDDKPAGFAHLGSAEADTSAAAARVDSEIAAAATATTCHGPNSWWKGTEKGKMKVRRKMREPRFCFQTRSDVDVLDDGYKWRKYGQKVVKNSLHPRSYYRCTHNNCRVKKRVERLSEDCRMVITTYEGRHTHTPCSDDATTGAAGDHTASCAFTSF

target: OsWRKY34 (Oryza sativa, UniProt Q0JBA9 1-250); experiment: protein-binding microarray (RPBM); PBS, 2% BSA, 51.3 ng/ul salmon testes DNA, 50 uM zinc acetate, 200 nM TF, 25 C, 1 h; high values mean tight binding; conditions: protein: recombinant; tags: N-terminal polyhistidine and DsRed monomer fusion (pET32a); label: CyDye5-dUTP incorporated in the synthesized complementary strand; 3' TTTTT single-stranded linker to array surface; dsDNA, one strand shown
How it was run: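 Polyhistidine-tagged DsRed fusions of transcription factors, joined at the N-terminus, were expressed in E. coli BL21-CodonPlus and isolated on Ni–NTA. They were incubated at 200 nM for 1 h at 25 °C on a custom Agilent array, double-stranded and BSA-blocked, in PBS with 2% BSA, salmon testes DNA and 50 µM zinc acetate. The binding signal is per-feature fluorescence intensity (arbitrary units) read on an Axon 4000B scanner after washing.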

Sequence	binding signal
TTTGCTCTCATCACACATTCAATCACTCCATAAATTTTGACGGAGTCACCTAGTGCAG	9550 fluorescence intensity (a.u.)
TTCTGCTTGTGTTCGGTAGTCTACCATGTTGACTTGCCGGCGGAGTCACCTAGTGCAG	11700 fluorescence intensity (a.u.)
TTACACTTTCTCCTCCATCATGCGCTCATGGCCATCCATTCGGAGTCACCTAGTGCAG	8320 fluorescence intensity (a.u.)
ATCCCTCCCTAACCCGTCTACTTGGCCGATAACCCGTCTCCGGAGTCACCTAGTGCAG	10900 fluorescence intensity (a.u.)
CTATTTCCATGAAGCGTGTATGTCTTGTAAGTTGTGACGGCGGAGTCACCTAGTGCAG	9260 fluorescence intensity (a.u.)
ACGCTGGTGATTTTTTTTTTCTTTTCACGTGGTACTGATTCGGAGTCACCTAGTGCAG	11300 fluorescence intensity (a.u.)
GAAGTAGGGGTGACAATTTTCTCGGTGGGTGCAGGGTCCCCGGAGTCACCTAGTGCAG	9340 fluorescence intensity (a.u.)
CGAATCGTTTTTTTATAATGGTAGAGGTGGGAAATTTTTTCGGAGTCACCTAGTGCAG	8400 fluorescence intensity (a.u.)
GCGGACCAACCAACCAATCACTCGCTCGCCGCCGGCCATGCGGAGTCACCTAGTGCAG	9090 fluorescence intensity (a.u.)
TTGCACCGGTTTCAATAGTTCGGGAGTCGGGATATCCGAACGGAGTCACCTAGTGCAG	8190 fluorescence intensity (a.u.)
TATGTTTGTTTTGTGTTGATAATATTGCTATATTTTTCTTCGGAGTCACCTAGTGCAG	10500 fluorescence intensity (a.u.)
CCGCCTAGTCTCATTGGAAACCACCTCATTAGTCATCCCACGGAGTCACCTAGTGCAG	8680 fluorescence intensity (a.u.)
TTCGGTTTGTATCAGCACTCCTGCATTTGGGTCATTCACTCGGAGTCACCTAGTGCAG	12000 fluorescence intensity (a.u.)
AGCTCCATGTCTACCGCCACCGGAGCTCCGGCCATGTCCGCGGAGTCACCTAGTGCAG	9530 fluorescence intensity (a.u.)
ATGCATTGTTGTCATTCGCACCTACCTGTAACCAGACCTTCGGAGTCACCTAGTGCAG	9140 fluorescence intensity (a.u.)
GCACAAGAGTAACACCCTTCATTTTTTTTCTTGCTACCTCCGGAGTCACCTAGTGCAG	8980 fluorescence intensity (a.u.)
GTGGTTTGCCCCTAGCTGTTGTCACTATCGCAAGTCTTTTCGGAGTCACCTAGTGCAG	10600 fluorescence intensity (a.u.)
TTAATCTCAGTTTAGAATCCATGCTGTTTCTATCTCAAATCGGAGTCACCTAGTGCAG	8610 fluorescence intensity (a.u.)
GTGTGTGCCTCCTTTTCTCTTCTTCAGTTTTCAACTCAAACGGAGTCACCTAGTGCAG	9440 fluorescence intensity (a.u.)
TTTTACCCGCCAAGTATCTTGTTCCTCCACGCTATATATCCGGAGTCACCTAGTGCAG	11700 fluorescence intensity (a.u.)
GAGCACTGTCGTTACTTTTTTCTTTTGGAACCAACACTGTCGGAGTCACCTAGTGCAG	11100 fluorescence intensity (a.u.)

Sequence	binding signal
ACAGCTCACTTTCTTGGCCTCCTTCCTTTCCAGCTCGGTTCGGAGTCACCTAGTGCAG	11000 fluorescence intensity (a.u.)
GAAAAGTTGTTGTACCCAAATTTTCCAAATTGTTTTTTTTCGGAGTCACCTAGTGCAG	8030 fluorescence intensity (a.u.)
TTCCTTCGGCGTTTTTTCATCCATGACCGGGTACATGACACGGAGTCACCTAGTGCAG	12000 fluorescence intensity (a.u.)
TCCACCACCACCACCATGCATCACCACGTAGACAAATTCACGGAGTCACCTAGTGCAG	9840 fluorescence intensity (a.u.)
TAACAGTATCATTTGATAGCACAATATAAGGTGTTTTGCTCGGAGTCACCTAGTGCAG	28800 fluorescence intensity (a.u.)
AACACGCACGCGCCCGCGCACGAGCTTATCTTTTGCCAACCGGAGTCACCTAGTGCAG	9620 fluorescence intensity (a.u.)
ATTCAAAGTGTACCCATTTGTGTTTTTTTTACACGTGAAGCGGAGTCACCTAGTGCAG	8860 fluorescence intensity (a.u.)
GGTTAGGTGGCATTTGAATTTAAAACGTATATGTGGACTCCGGAGTCACCTAGTGCAG	13900 fluorescence intensity (a.u.)
ACTTTCTCTTCTCAACCAATCACATACTTCCTCTAATCATCGGAGTCACCTAGTGCAG	9900 fluorescence intensity (a.u.)
ATGCACATCCTCGTGCCCTCCATCTCCAACCACGACTTGACGGAGTCACCTAGTGCAG	8140 fluorescence intensity (a.u.)
CCTCATCCCGTCCAGCGTTCACCCGACGTCGCCCGTCGCACGGAGTCACCTAGTGCAG	10500 fluorescence intensity (a.u.)
CCGTCATTGCCACCGGCCTCTGCCGCAAGCGCCGCTCCCGCGGAGTCACCTAGTGCAG	9690 fluorescence intensity (a.u.)
GTTATGAGATTAGTTTTTTTATTCGTGTCCGAAAATCACTCGGAGTCACCTAGTGCAG	9890 fluorescence intensity (a.u.)
CAATGCTGATATATCCAATATGCTGTCTGTTATGATACATCGGAGTCACCTAGTGCAG	8820 fluorescence intensity (a.u.)
CATCCGACCTCAACTCCTCTGTCCTCTACTACGCATCTCTCGGAGTCACCTAGTGCAG	14100 fluorescence intensity (a.u.)
ATAGGGTGTAATTTATTTTCGGATTTGCTACATCTCTGTCCGGAGTCACCTAGTGCAG	8080 fluorescence intensity (a.u.)
TCCTCCACTGCTGCCGCCCACCTCTCCGTATCAGCTGCGTCGGAGTCACCTAGTGCAG	8300 fluorescence intensity (a.u.)
AGTAACAAACTCGATGCATGCACCATCCCCACTATTCCCTCGGAGTCACCTAGTGCAG	11100 fluorescence intensity (a.u.)
ACCTATAGTCACTAGCTAGCTCGATCCAGCTCCTCACCTCCGGAGTCACCTAGTGCAG	8310 fluorescence intensity (a.u.)
TATGGGTTGCTCGATCTTTCTATAAATAATAACGCTACTCCGGAGTCACCTAGTGCAG	8220 fluorescence intensity (a.u.)
GCGGTTTTGATCCCGGTTTTGTCCTACATGGCTGCTGAGTCGGAGTCACCTAGTGCAG	10500 fluorescence intensity (a.u.)

Rewritten with bars between the fields: part of the list above
Sequence | binding signal
ATAGGGTGTAATTTATTTTCGGATTTGCTACATCTCTGTCCGGAGTCACCTAGTGCAG | 8080 fluorescence intensity (a.u.)
TCCTCCACTGCTGCCGCCCACCTCTCCGTATCAGCTGCGTCGGAGTCACCTAGTGCAG | 8300 fluorescence intensity (a.u.)
AGTAACAAACTCGATGCATGCACCATCCCCACTATTCCCTCGGAGTCACCTAGTGCAG | 11100 fluorescence intensity (a.u.)
